## Cell number after 72 h of treatment

Source: doi:10.1371/journal.pone.0140310, primary screening data, rounded.

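Human melanoma cell lines in 1,536-well plates were treated with a pair of drugs for 72 h, then fixed, stained and imaged. The read-out is cell count (nuclei) in % of the DMSO control; lower values mean stronger growth inhibition or killing. Every drug was used at one fixed concentration, the higher of two screened. No replicate spread is given; individual values may be noisy.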
This is part of the screen, not chosen by result.

Compounds and concentrations:
lenalidomide: Nc1cccc2c1CN(C1CCC(=O)NC1=O)C2=O (stereo unspecified) at 5 µM
IMD-0354: O=C(Nc1cc(C(F)(F)F)cc(C(F)(F)F)c1)c1cc(Cl)ccc1O at 0.08 µM
GW0742: Cc1cc(SCc2sc(-c3ccc(C(F)(F)F)c(F)c3)nc2C)ccc1OCC(=O)O at 10 µM
U73122: COc1ccc2c(c1)CCC1C2CCC2(C)C(NCCCCCCN3C(=O)C=CC3=O)CCC12 (stereo unspecified) at 2 µM
T0901317: O=S(=O)(c1ccccc1)N(CC(F)(F)F)c1ccc(C(O)(C(F)(F)F)C(F)(F)F)cc1 at 7 µM
CP-690550: C[C@@H]1CCN(C(=O)CC#N)C[C@@H]1N(C)c1ncnc2[nH]ccc12 at 5 µM
crizotinib: C[C@@H](Oc1cc(-c2cnn(C3CCNCC3)c2)cnc1N)c1c(Cl)ccc(F)c1Cl at 1 µM
KU-0063794: COc1ccc(-c2ccc3c(N4CCOCC4)nc(N4C[C@@H](C)O[C@@H](C)C4)nc3n2)cc1CO at 0.1 µM
NVP-TAE684: COc1cc(N2CCC(N3CCN(C)CC3)CC2)ccc1Nc1ncc(Cl)c(Nc2ccccc2S(=O)(=O)C(C)C)n1 at 0.4 µM
enzastaurin: Cn1cc(C2=C(c3cn(C4CCN(Cc5ccccn5)CC4)c4ccccc34)C(=O)NC2=O)c2ccccc21 at 4 µM
lapatinib: CS(=O)(=O)CCNCc1ccc(-c2ccc3ncnc(Nc4ccc(OCc5cccc(F)c5)c(Cl)c4)c3c2)o1 at 4 µM
vorinostat: O=C(CCCCCCC(=O)Nc1ccccc1)NO at 0.4 µM

Pair	WM3619	COLO 829	WM451Lu	COLO 800	COLO 792
NVP-TAE684 and IMD-0354	77.8	123	76.7	48.5	87.4
IMD-0354 and T0901317	64.4	79.5	76.5	86.8	79.7
vorinostat and NVP-TAE684	63.7	86.0	77.3	36.6	76.4
vorinostat and enzastaurin	75.6	59.3	75.4	121	86.9
KU-0063794 and enzastaurin	89.0	88.3	98.6	102	81.5
crizotinib and IMD-0354	111	73.4	116	127	150
enzastaurin and T0901317	105	79.0	101	158	102
KU-0063794 and lapatinib	71.4	86.0	111	69.3	85.8
GW0742 and U73122	78.5	103	99.9	40.6	109
crizotinib and T0901317	82.6	70.1	82.2	73.4	93.2
CP-690550 and crizotinib	94.5	86.7	84.1	59.3	99.2
lenalidomide and lapatinib	81.8	70.6	107	85.8	70.9
U73122 and crizotinib	74.0	97.9	77.7	91.9	102
lapatinib and U73122	7.5	78.4	83.3	36.7	72.0
GW0742 and NVP-TAE684	81.5	99.2	76.9	65.4	89.5
CP-690550 and lenalidomide	96.3	86.4	117	98.4	85.4
KU-0063794 and vorinostat	38.4	66.2	53.4	83.2	72.8
U73122 and lenalidomide	78.7	140	70.5	61.1	105
U73122 and IMD-0354	85.9	141	136	100	123
T0901317 and CP-690550	64.9	85.0	98.2	56.3	85.7
U73122 and enzastaurin	92.7	82.5	107	169	87.4
GW0742 and CP-690550	93.6	114	95.4	80.7	104
lapatinib and crizotinib	64.8	56.5	73.6	65.1	61.9
lenalidomide and T0901317	95.0	87.9	98.1	75.2	95.4
vorinostat and lenalidomide	86.1	73.4	72.3	52.6	66.2
lenalidomide and NVP-TAE684	89.1	101	97.0	56.6	79.8
NVP-TAE684 and CP-690550	66.3	86.2	84.8	63.6	72.0
GW0742 and enzastaurin	97.6	83.2	92.3	63.6	79.7
NVP-TAE684 and crizotinib	93.3	103	89.5	28.7	79.8
vorinostat and CP-690550	82.7	78.8	72.4	89.4	81.5
lenalidomide and KU-0063794	59.0	72.2	75.7	85.5	62.3
lapatinib and NVP-TAE684	44.6	74.4	73.4	42.6	46.4
T0901317 and GW0742	75.3	88.8	109	114	93.0
CP-690550 and U73122	70.6	91.5	90.8	102	95.0
T0901317 and vorinostat	66.0	73.9	69.5	110	104

Some entries from above, unchanged:

| Pair | WM3619 | COLO 829 | WM451Lu | COLO 800 | COLO 792 |
|---|---|---|---|---|---|
| GW0742 and U73122 | 78.5 | 103 | 99.9 | 40.6 | 109 |
| KU-0063794 and enzastaurin | 89.0 | 88.3 | 98.6 | 102 | 81.5 |
| U73122 and crizotinib | 74.0 | 97.9 | 77.7 | 91.9 | 102 |
| GW0742 and NVP-TAE684 | 81.5 | 99.2 | 76.9 | 65.4 | 89.5 |